Measurements as given in article PMC8469697.
Results are given in words; binding and its absence hold for the method and conditions named. In cells and extracts the contact can be indirect. Tags and fused reporters may be left off the sequences shown.

By UniProt entry, the sequences of proteins in these tests, tags left out.
UniProt P32121: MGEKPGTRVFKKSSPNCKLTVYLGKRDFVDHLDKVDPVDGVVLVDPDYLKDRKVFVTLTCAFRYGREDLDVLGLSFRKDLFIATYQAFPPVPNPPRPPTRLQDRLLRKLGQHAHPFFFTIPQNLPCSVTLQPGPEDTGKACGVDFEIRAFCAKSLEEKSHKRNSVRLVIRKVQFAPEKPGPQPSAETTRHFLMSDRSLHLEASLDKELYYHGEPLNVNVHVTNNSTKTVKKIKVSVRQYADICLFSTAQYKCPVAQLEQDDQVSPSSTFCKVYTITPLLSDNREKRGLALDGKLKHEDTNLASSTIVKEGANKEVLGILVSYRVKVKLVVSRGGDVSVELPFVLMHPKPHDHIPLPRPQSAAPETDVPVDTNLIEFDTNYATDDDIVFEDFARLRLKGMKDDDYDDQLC

Biological target: T1, Follicle-stimulating hormone receptor C-terminally fused with donor Rluc8 (UniProt P23945)
T1 sequence: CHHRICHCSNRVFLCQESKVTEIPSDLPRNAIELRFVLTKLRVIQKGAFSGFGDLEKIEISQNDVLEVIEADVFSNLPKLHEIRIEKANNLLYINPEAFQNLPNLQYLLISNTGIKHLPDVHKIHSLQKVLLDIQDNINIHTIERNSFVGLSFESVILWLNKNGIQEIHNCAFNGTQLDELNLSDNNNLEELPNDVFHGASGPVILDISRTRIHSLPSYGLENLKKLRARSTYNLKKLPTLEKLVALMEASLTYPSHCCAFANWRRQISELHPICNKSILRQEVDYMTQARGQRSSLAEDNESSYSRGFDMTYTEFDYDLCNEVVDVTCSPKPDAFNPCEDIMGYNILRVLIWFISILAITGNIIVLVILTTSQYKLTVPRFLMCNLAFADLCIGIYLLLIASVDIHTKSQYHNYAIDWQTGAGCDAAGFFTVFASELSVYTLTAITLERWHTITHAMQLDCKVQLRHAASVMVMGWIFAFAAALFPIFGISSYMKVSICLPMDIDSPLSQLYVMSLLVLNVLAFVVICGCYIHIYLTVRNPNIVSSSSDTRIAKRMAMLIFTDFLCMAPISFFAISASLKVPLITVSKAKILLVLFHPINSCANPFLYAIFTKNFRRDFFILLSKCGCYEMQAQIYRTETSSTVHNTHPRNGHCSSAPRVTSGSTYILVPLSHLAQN
Assay: condition: only in HEK293/ΔGαs cells with B1 as the only ligand (10^-10 to 10^-4 M); FRET or BRET; as a1, HEK293/ΔGαs cells, B1 as the only ligand (10^-10 to 10^-4 M)

For “β-arrestin 2 N-terminally fused to the BRET acceptor yPET (from UniProt P32121 1-409)”, the binding was “no binding”.
